Measured values published in patent US11866424B2, “Aggregation-induced emission luminogens for photodynamic therapy” (The Hong Kong University of Science and Technology, priority 2020, dated 2024).

What follows are compounds tested on HeLa cells (assay: Photostability under repeated confocal laser scans in stained HeLa cells). Conditions: After 40 times of scan, 22.4 s per scan.
Assay type: cell-based
Text: For photostability assay, cells were imaged using a Zeiss Laser Scanning Confocal Microscope and analyzed using ZEN 2009 software (Carl Zeiss). Both TFPy and MitroTracker Green were excited at 488 nm (0.6% laser power). Both TFVP and CellMask Green were excited at 488 nm (0.7% laser power). TPE-TFPy was excited at 488 nm, whereas LysoTracker Green was excited at 514 nm with 1% laser power. The scanning speed was 22.4 s per scan, and the repeated image scans were taken 40 times. The first scan of all the presented photosensitizers were set to 100%, followed by which the pixel intensity values were averaged and plotted against the scan number. The resulting curve represents the photobleaching rate.
Motivated by the excellent targetability and specificity of three diverse organelle-targeting AIEgens, photostability was also carefully investigated as it is an essential parameter to evaluate a fluorescence imaging agent. Photostability assessment was carried out by continuous irradiation and sequential scanning with confocal microscope. […] With HeLa cell imaging and photostability data in hand, additional cellular uptake experiment using 4T1 cell line was performed as preliminary study for in vivo experiment.
For `C[N+](C)(C)CCC[n+]1ccc(C=Cc2ccc(-c3ccc(N(c4ccccc4)c4ccccc4)cc3)o2)cc1.[Br-].[Br-]` [TFVP], the “fluorescence intensity loss (photostability)” value (“fluorescence intensity loss” below) was “minimal intensity loss”. With `C[n+]1ccc(C=Cc2ccc(-c3ccc(N(c4ccccc4)c4ccc(C(=C(c5ccccc5)c5ccccc5)c5ccccc5)cc4)cc3)o2)cc1.F[P-](F)(F)(F)(F)F` [TPE-TFPy] the “fluorescence intensity loss” value was “minimal intensity loss”. In the case of `C[n+]1ccc(C=Cc2ccc(-c3ccc(N(c4ccccc4)c4ccccc4)cc3)o2)cc1.F[P-](F)(F)(F)(F)F` [TFPy], the “fluorescence intensity loss” value is reported as “minimal intensity loss”.
